# Measurements from PubChem BioAssay AID2685 (National Center for Advancing Translational Sciences (NCATS), 2010).
# This is one part of the list. Further columns of the screen follow, without active or inactive calls. Compounds called inactive in the main read-out are mostly missing here. Words in brackets tell the shape of the fitted curve; partial curves, single points and poor fits give uncertain potencies.
# Experiment: qHTS Assay for Lipid Storage Modulators in Drosophila S3 Cells;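 on cell number change: cells counted by Cell Tracker Red CMTPX staining in the red channel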
# Conditions: BODIPY lipid droplet fluorescence, 18-24 h; for cell number change: measured here: cell count max response, cells fed with added oleic acid
# How it was run: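 Drosophila S3 cells loaded with oleic acid (400 uM, as added) and compounds at several concentrations; lipid droplets imaged by 488-nm laser-scanning cytometry, 500–530 nm intensity and object ratio to cell channel. Percent activity normalized to 20 uM Triacsin C.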
# [1] = measured here: lipid fluorescence (Fed channel) AC50, cells fed with added oleic acid
# [2] = measured here: cell number channel AC50, cells fed with added oleic acid
SMILES,cell number change [%],AC50 [1],AC50 [2]
CCc1c(O)nc(SCC(=O)N2CCc3cc(OC)c(OC)cc3[C@@H]2C)[nH]c1=O,0.135,"0.517 µM [rising, full curve]",–
COC(=O)c1cc(NC(=O)Cc2ccc(OC)cc2)cc(C(=O)OC)c1,34.2,–,"0.13 µM [rising, full curve, poor fit]"
CCNc1nc(N)nc(Oc2ccc(OCc3ccccc3)nn2)n1,20.9,"29.1 µM [rising, single point]",–
Cc1cccc(N2CCN(C(C)C(=O)N3CCc4ccccc43)CC2)c1C (stereo unspecified),34.3,–,"29.1 µM [rising, single point]"
Cc1nc(C)c(C(=O)O)s1,43.1,–,"0.184 µM [rising, full curve]"
COC(=O)C1=C(C(=O)c2ccc(C)cc2)C(c2ccc(OC)c(OC)c2)n2nnnc2N1 (stereo unspecified),–,"0.461 µM [falling, full curve]","0.92 µM [falling, full curve]"
O=C(NCCCn1ccnc1)C(=O)NCC1OCCCN1S(=O)(=O)c1ccc(Cl)cc1 (stereo unspecified),–,"32.6 µM [rising, single point]","6.51 µM [falling, single point]"
CC1CN(S(=O)(=O)c2ccc(F)cc2)CN1C(=O)N1CCOCC1 (stereo unspecified),-22.2,"29.1 µM [rising, single point]",–
CC(NS(=O)(=O)c1ccc([N+](=O)[O-])cc1)C(=O)NN (stereo unspecified),–,"6.51 µM [rising, single point]","6.51 µM [rising, single point]"
CCCCn1nnnc1SCC(=O)Nc1ccc2c(c1)OCO2,3.85,"3.26 µM [rising, full curve]","0.082 µM [rising, full curve, poor fit]"
O=C1CN2C(=Nc3ccc(Cl)cc3C2c2ccccc2)CN1 (stereo unspecified),101,"16.4 µM [rising, partial curve]","16.4 µM [rising, partial curve]"
CC(C)=NNc1cc([N+](=O)[O-])cc2c1C(=O)N(C)S2=O (stereo unspecified),-30.9,"0.731 µM [falling, full curve]","0.461 µM [falling, full curve]"
Cc1ccc(C)c(N(CC(=O)NC2CCCC2)S(=O)(=O)c2ccccc2)c1,-19.4,–,–
COC(=O)CSC(=S)N1C(C)CCCC1C (stereo unspecified),2.32,"6.51 µM [falling, single point]","6.51 µM [falling, single point]"
COc1cc(/C=N/Nc2ccc(Cl)c(C(=O)O)c2)ccc1OC(=O)c1ccccc1F,7.66,–,–
CCOC(=O)Cc1csc(SCC(=O)/C(C#N)=C(\C)N)n1,43.1,–,"10.3 µM [rising, partial curve, poor fit]"
O=C(Cc1cccs1)NCC1CCCO1 (stereo unspecified),32.4,–,"32.6 µM [rising, single point]"
O=C(N/N=C/c1sc2ccccc2c1O)c1cccc2ccccc12,-45.6,"6.51 µM [rising, partial curve]","1.84 µM [falling, partial curve]"
COc1ccc(OC)c(C(O)c2coc3ccc(O)c(CN4CCOCC4)c23)c1 (stereo unspecified),-28.5,–,–
O=C(COC(=O)C1C2CC3OC(=O)C1C3C2)Nc1cccc(C(F)(F)F)c1 (stereo unspecified),6.67,–,–
CCC1CCc2sc(C(=O)NCC(c3ccc(OC)cc3)N3CCCC3)cc2C1 (stereo unspecified),–,"0.731 µM [falling, single point]","6.51 µM [rising, single point]"
Cc1ccc(N(CCC#N)C(=O)COC(=O)c2cc(C)no2)cc1,–,"3.66 µM [falling, single point]",–

SMILES,cell number change [%],AC50 [1],AC50 [2]
O=C(O)C1CSC(c2ccccc2)N1C(=O)c1ccco1 (stereo unspecified),0.926,–,–
Cc1cccc2cc(CN(CCN3CCCC3)C(=O)NC3CCCCC3)c(=O)[nH]c12,11.4,–,"6.51 µM [rising, single point]"
CC(C)(C)c1ccc(C(=O)NCC2CCCN2S(=O)(=O)c2ccccc2)cc1 (stereo unspecified),20,–,–
Cc1cc(NC(=O)C2CCN(C(=O)c3ccco3)CC2)ccc1Br,29.1,"29.1 µM [rising, single point]",–
Cn1nnnc1SCc1cc(=O)[nH]c2ccccc12,-0.117,"0.731 µM [falling, single point]",–
O=C(CC(=O)Nc1nc(C23CC4CC(CC(C4)C2)C3)cs1)NCCO,-26.6,"9.2 µM [falling, partial curve, poor fit]",–
COc1ccccc1N=c1oc2c(OC)cccc2cc1C(=O)NCc1ccco1,-5.31,"0.731 µM [rising, full curve, poor fit]",–
Cc1nn(S(=O)(=O)c2ccccc2)c(C)c1S(=O)(=O)N1CCOCC1,3.4,"29.1 µM [rising, single point]",–
Cc1ccc(OCCCCNC(C)c2ccccc2)c(C)c1 (stereo unspecified),5.57,–,–
CC(C)(NO)/C(=N\O)c1ccccc1,-0.919,"3.26 µM [falling, single point]",–
CCOc1ccccc1C(=S)NC1CCCCC1,-24.3,–,–
COc1cccc(CN2C(=O)c3ccccc3S2(=O)=O)c1,21.7,"6.51 µM [falling, single point]",–
Cc1cc(CSc2ccccc2)ccc1NC(=O)c1cccc([N+](=O)[O-])c1,-38.2,"0.651 µM [falling, full curve]","1.3 µM [falling, full curve]"
Cc1csc2c(=O)sc(NC(=O)c3ccco3)nc12,7.19,–,–
Cc1cc(N=Cc2cc(Cl)ccc2O)no1,–,"2.91 µM [falling, full curve]",–
Cc1cc(NS(=O)(=O)c2ccc(NC(=O)C(F)(F)F)cc2)nc(C)n1,30.7,–,–
COc1cc(C(=O)NC(=S)Nc2ccc3[nH]c(=O)[nH]c3c2)cc(OC)c1OC,35.5,–,–
CCN(CC)CCN(Cc1cc2cc3c(cc2[nH]c1=O)OCCO3)C(=S)NCCCN(C)C,-23.7,"0.116 µM [falling, full curve, poor fit]",–
O=[N+]([O-])c1ccc(COc2ccc(-c3[nH]ncc3-c3ccc(Cl)cc3)c(O)c2)cc1,-69.4,"10.3 µM [falling, partial curve]","11.6 µM [falling, partial curve]"
CC(=O)c1ccc(OC(=O)c2ccc(Br)o2)cc1,2.5,–,–
Cc1ccc(Nc2nc(=O)c3cccnc3s2)c(Br)c1,8.77,"29.1 µM [rising, single point]",–
CC(CCC(=O)O)(c1ccc(O)cc1)c1ccc(O)cc1,-2.82,"0.00517 µM [falling, full curve, poor fit]",–

SMILES,cell number change [%],AC50 [1],AC50 [2]
CC(C)c1ccccc1NC(=S)NCC1(N(C)C)CCCCC1,9.83,–,–
Cc1c(S(=O)(=O)Nc2cccc(Cl)c2)c(=O)n(C)c(=O)n1C,7.24,"0.00517 µM [falling, full curve, poor fit]",–
Cc1ccc(C)c(NC(=S)c2ccccn2)c1,-9.21,"4.11 µM [rising, full curve]","6.51 µM [rising, single point]"
O=[N+]([O-])c1cccnc1S(=O)(=O)c1ccccc1,-0.518,–,–
Cc1nc(NC2=NCN(Cc3ccco3)CN2)nc2ccccc12,-3.93,"0.291 µM [rising, single point]",–
CC(NC(=O)COc1cccnc1[N+](=O)[O-])c1ccc(Cl)cc1 (stereo unspecified),-1.26,"3.66 µM [rising, full curve]",–
Cc1cc(C)c2c(N)c(C(=O)c3ccccc3Cl)sc2n1,–,"0.058 µM [rising, full curve]",–
COc1ccc(C(C(=O)NC2CCCC2)N(C(=O)c2ccoc2C)c2ccccc2)cc1 (stereo unspecified),9.67,–,–
CN(C)Cc1c(O)ccc2c(=O)c(-c3ccccc3)c(C(F)(F)F)oc12,-0.676,–,–
Cc1cc(C)nc(SCc2csc(N)n2)n1,-24.2,"6.51 µM [rising, single point]",–
CCCn1c(SCc2ccccn2)nc2c1c(=O)n(C)c(=O)n2C,3.09,"0.0731 µM [falling, full curve, poor fit]",–
CCOC(CNC(=O)c1cc(C)nn1-c1ccccc1)OCC,-10.3,–,"0.731 µM [falling, full curve]"
N/C(Cn1cncn1)=N\NC(=O)c1ccc(Cl)cc1Cl,-19.9,"5.8 µM [falling, partial curve]","7.31 µM [falling, single point]"
COc1ccc(C(=O)c2c(N)sc3c2CCN(C(=O)OC(C)(C)C)C3)cc1,2.21,"0.0058 µM [rising, full curve, poor fit]",–
COc1ccc(F)cc1C(=O)C1CCCN(C(=O)c2cccc(N(C)C)c2)C1 (stereo unspecified),-19.5,"29.1 µM [falling, single point]",–
CCN1/C(=C/c2ccc3ccccc3[n+]2CC)C=Cc2ccccc21,111,"1.16 µM [falling, full curve]","2.59 µM [rising, full curve]"
COc1ccc(C(=O)N2CCN(C(=O)Cc3ccccc3)CC2)cc1OC,29.9,"4.11 µM [rising, single point]",–
O=C(NCc1ccc2c(c1)OCO2)C1CC(=O)N(CCc2ccc(Cl)cc2)C1 (stereo unspecified),6.52,–,–
O=C(Cc1ccc2c(c1)OCCO2)N/N=C/c1ccco1,-7.27,"29.1 µM [rising, single point]",–
O=S(=O)(c1ccccc1)c1nc(-c2cccs2)oc1NCCCn1ccnc1,7.68,"1.3 µM [rising, partial curve]","1.46 µM [rising, full curve]"
Cc1ccccc1CSCC(=O)Nc1ccccc1Br,-21,"29.1 µM [falling, single point]",–

# Laid out differently: entries from further up.
SMILES	cell number change [%]	AC50 [1]	AC50 [2]
Cc1ccc(C)c(NC(=S)c2ccccn2)c1	-9.21	4.11 µM [rising, full curve]	6.51 µM [rising, single point]
COc1ccc(C(C(=O)NC2CCCC2)N(C(=O)c2ccoc2C)c2ccccc2)cc1 (stereo unspecified)	9.67	–	–
COc1ccc(C(=O)c2c(N)sc3c2CCN(C(=O)OC(C)(C)C)C3)cc1	2.21	0.0058 µM [rising, full curve, poor fit]	–
O=S(=O)(c1ccccc1)c1nc(-c2cccs2)oc1NCCCn1ccnc1	7.68	1.3 µM [rising, partial curve]	1.46 µM [rising, full curve]
